Drawing on doi:10.1101/2021.04.26.441472, this text covers binding for 5 molecules.

Sequences of proteins named here, by UniProt entry; tags and fusion partners are left off.
UniProt P05412: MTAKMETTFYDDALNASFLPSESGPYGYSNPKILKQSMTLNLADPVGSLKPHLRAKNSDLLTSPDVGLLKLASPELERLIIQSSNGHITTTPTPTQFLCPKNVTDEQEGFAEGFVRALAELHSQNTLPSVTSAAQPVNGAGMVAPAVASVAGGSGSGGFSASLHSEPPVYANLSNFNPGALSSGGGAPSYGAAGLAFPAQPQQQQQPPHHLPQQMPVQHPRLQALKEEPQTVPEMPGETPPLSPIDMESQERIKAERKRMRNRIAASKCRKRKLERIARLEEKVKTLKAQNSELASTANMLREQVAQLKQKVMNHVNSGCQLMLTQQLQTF
UniProt P40763: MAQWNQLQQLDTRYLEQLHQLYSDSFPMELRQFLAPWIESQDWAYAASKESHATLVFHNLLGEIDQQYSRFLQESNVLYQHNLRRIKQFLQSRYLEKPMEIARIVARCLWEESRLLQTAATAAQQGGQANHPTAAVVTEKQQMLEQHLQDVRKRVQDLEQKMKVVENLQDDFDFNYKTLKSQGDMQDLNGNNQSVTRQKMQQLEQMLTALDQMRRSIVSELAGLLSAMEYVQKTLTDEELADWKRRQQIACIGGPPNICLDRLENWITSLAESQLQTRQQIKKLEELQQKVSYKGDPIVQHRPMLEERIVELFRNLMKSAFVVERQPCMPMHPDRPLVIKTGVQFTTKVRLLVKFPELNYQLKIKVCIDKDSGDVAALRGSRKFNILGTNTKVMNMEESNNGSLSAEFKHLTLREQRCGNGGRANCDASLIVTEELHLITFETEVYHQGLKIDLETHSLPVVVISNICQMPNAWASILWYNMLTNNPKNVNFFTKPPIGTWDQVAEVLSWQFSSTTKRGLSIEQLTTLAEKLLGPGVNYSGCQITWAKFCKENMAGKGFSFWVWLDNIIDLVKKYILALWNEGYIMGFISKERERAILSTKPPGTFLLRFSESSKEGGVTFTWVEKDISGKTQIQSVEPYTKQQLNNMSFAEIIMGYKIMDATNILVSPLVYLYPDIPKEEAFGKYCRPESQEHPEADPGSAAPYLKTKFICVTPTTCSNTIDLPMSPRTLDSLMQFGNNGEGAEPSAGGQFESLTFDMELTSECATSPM
UniProt Q01196: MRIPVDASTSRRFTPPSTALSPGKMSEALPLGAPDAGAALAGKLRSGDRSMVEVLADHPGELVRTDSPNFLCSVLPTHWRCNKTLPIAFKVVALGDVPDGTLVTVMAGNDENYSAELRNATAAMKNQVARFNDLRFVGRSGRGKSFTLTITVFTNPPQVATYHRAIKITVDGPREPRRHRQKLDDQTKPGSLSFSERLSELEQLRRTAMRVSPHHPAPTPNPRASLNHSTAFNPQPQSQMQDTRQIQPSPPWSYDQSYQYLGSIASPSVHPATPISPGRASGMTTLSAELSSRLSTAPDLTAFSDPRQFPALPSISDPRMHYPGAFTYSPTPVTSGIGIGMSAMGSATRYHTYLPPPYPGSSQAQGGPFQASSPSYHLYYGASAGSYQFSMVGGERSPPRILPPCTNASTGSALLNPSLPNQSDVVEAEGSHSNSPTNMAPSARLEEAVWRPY

Results are given in words; binding and its absence hold for the method and conditions named. In cells and extracts the contact can be indirect. Some binding calls cover weakened binding; strength is not graded here.

The chains are these.
T1: BATF (human (endogenous in Th17 cells from cord blood CD4+ T cells)) (UniProt Q16520)
T1 sequence: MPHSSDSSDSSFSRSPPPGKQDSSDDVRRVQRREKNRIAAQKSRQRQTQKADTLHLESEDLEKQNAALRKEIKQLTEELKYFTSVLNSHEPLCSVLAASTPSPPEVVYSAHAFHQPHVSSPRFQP

B1: JUNB (protein, UniProt P17275 1-347)
chain: MCTKMEQPFYHDDSYTATGYGRAPGGLSLHDYKLLKPSLAVNLADPYRSLKAPGARGPGPEGGGGGSYFSGQGSDTGASLKLASSELERLIVPNSNGVITTTPTPPGQYFYPRGGGSGGGAGGAGGGVTEEQEGFADGFVKALDDLHKMNHVTPPNVSLGATGGPPAGPGGVYAGPEPPPVYTNLSSYSPASASSGGAGAAVGTGSSYPTTTISYLPHAPPFAGGHPAQLGLGRGASTFKEEPQTVPEARSRDATPPVSPINMEDQERIKVERKRLRNRLAATKCRKRKLERIARLEDKVKTLKAENAGLSSTAGLLREQVAQLKQKVMTHVSNGCQLLLGVKGHAF
B2: IRF4 (protein, UniProt Q15306 1-451)
chain: MNLEGGGRGGEFGMSAVSCGNGKLRQWLIDQIDSGKYPGLVWENEEKSIFRIPWKHAGKQDYNREEDAALFKAWALFKGKFREGIDKPDPPTWKTRLRCALNKSNDFEELVERSQLDISDPYKVYRIVPEGAKKGAKQLTLEDPQMSMSHPYTMTTPYPSLPAQQVHNYMMPPLDRSWRDYVPDQPHPEIPYQCPMTFGPRGHHWQGPACENGCQVTGTFYACAPPESQAPGVPTEPSIRSAEALAFSDCRLHICLYYREILVKELTTSSPEGCRISHGHTYDASNLDQVLFPYPEDNGQRKNIEKLLSHLERGVVLWMAPDGLYAKRLCQSRIYWDGPLALCNDRPNKLERDQTCKLFDTQQFLSELQAFAHHGRSLPRFQVTLCFGEEFPDPQRQRKLITAHVEPLLARQLYYFAQQNSGHFLRGYDLPEHISNPEDYHRSIRHSSIQE

The test deals with T1, BATF (human (endogenous in Th17 cells from cord blood CD4+ T cells)). Nature of the test: co-IP.
With JUN (from UniProt P05412 1-331), the binding entry was “binds”.

Turning to STAT3 (from UniProt P40763 1-770), the binding entry is recorded as “no binding”.

On to RUNX1 (from UniProt Q01196 1-453), for which the binding result is “binds”.

On to B1, for which the binding entry is “binds”.

For B2, the binding result is listed as “no binding”.
